Results deposited as PubChem BioAssay AID652272 (Drosophila RNAi Screening Center, 2013)

Assay: 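Genome-wide knock-down search for components of Hedgehog signalling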 (primary screen)
Cells: Drosophila clone 8 (Cl8) cells
Reagent: long dsRNA against Drosophila genes
Read-out: 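Plate reader light from a firefly reporter under a ptc promoter fragment that responds to Hedgehog, with Renilla light as transfection reference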
Scale: firefly Hh reporter signal: higher = more ptc reporter light; Renilla reference signal: higher = more Renilla control light
Active means: 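Called a hit if the two-replicate mean z-score lies below -2 or above +3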
Meaning of the calls: active = hit: reporter lowered or raised; inactive = not a hit
The screen tested about 21,000 reagents; below is an unselected part of those with a known target gene and a result. Of all reagents, 503 (2.4%) got an active call. 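Raw plate light values, not normalised; calls rest on replicate z-scores that were not deposited; hits include reporter decreases as well as increases.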 Entries without a mark were called inactive. Not given: the amount of reagent, the time to read-out.

CG7213
- firefly Hh reporter signal, replicate 1: 67207
- firefly Hh reporter signal, replicate 2: 58835
- Renilla reference signal, replicate 1: 6658
- Renilla reference signal, replicate 2: 4218

CG17896
- firefly Hh reporter signal, replicate 1: 1.12e5
- firefly Hh reporter signal, replicate 2: 1.02e5
- Renilla reference signal, replicate 1: 2663
- Renilla reference signal, replicate 2: 4115

CG7914
- firefly Hh reporter signal, replicate 1: 83141
- firefly Hh reporter signal, replicate 2: 2.25e5
- Renilla reference signal, replicate 1: 3001
- Renilla reference signal, replicate 2: 8752

Kdm3 (Lysine demethylase 3)
- firefly Hh reporter signal, replicate 1: 34672
- firefly Hh reporter signal, replicate 2: 98784
- Renilla reference signal, replicate 1: 1402
- Renilla reference signal, replicate 2: 2965

Cyp6a22 (Cytochrome P450 6a22)
- firefly Hh reporter signal, replicate 1: 1.18e5
- firefly Hh reporter signal, replicate 2: 62837
- Renilla reference signal, replicate 1: 4633
- Renilla reference signal, replicate 2: 1863

CG31231
- firefly Hh reporter signal, replicate 1: 56033
- firefly Hh reporter signal, replicate 2: 1.73e5
- Renilla reference signal, replicate 1: 8681
- Renilla reference signal, replicate 2: 3600

Cox10 (Cytochrome c oxidase assembly factor 10)
- firefly Hh reporter signal, replicate 1: 69332
- firefly Hh reporter signal, replicate 2: 44619
- Renilla reference signal, replicate 1: 2755
- Renilla reference signal, replicate 2: 1728

Gmppb (GDP-mannose pyrophosphorylase B)
- firefly Hh reporter signal, replicate 1: 1.34e5
- firefly Hh reporter signal, replicate 2: 71817
- Renilla reference signal, replicate 1: 5403
- Renilla reference signal, replicate 2: 2840

Jig
- firefly Hh reporter signal, replicate 1: 1.55e5
- firefly Hh reporter signal, replicate 2: 1.09e5
- Renilla reference signal, replicate 1: 5907
- Renilla reference signal, replicate 2: 3222

Dok (Downstream of kinase)
- firefly Hh reporter signal, replicate 1: 57585
- firefly Hh reporter signal, replicate 2: 1.03e5
- Renilla reference signal, replicate 1: 2251
- Renilla reference signal, replicate 2: 3928

CG15255
- firefly Hh reporter signal, replicate 1: 49969 (active)
- firefly Hh reporter signal, replicate 2: 27860
- Renilla reference signal, replicate 1: 1857
- Renilla reference signal, replicate 2: 3125

CG32655
- firefly Hh reporter signal, replicate 1: 5.22e5
- firefly Hh reporter signal, replicate 2: 1.87e5
- Renilla reference signal, replicate 1: 30088
- Renilla reference signal, replicate 2: 4170

TotZ (Turandot Z)
- firefly Hh reporter signal, replicate 1: 36706
- firefly Hh reporter signal, replicate 2: 2.26e5
- Renilla reference signal, replicate 1: 7424
- Renilla reference signal, replicate 2: 5368

CG3386
- firefly Hh reporter signal, replicate 1: 93684
- firefly Hh reporter signal, replicate 2: 42187
- Renilla reference signal, replicate 1: 3255
- Renilla reference signal, replicate 2: 2923

No new results follow: 2 of the entries above.
Cox10 (Cytochrome c oxidase assembly factor 10)
- firefly Hh reporter signal, replicate 1: 69332
- firefly Hh reporter signal, replicate 2: 44619
- Renilla reference signal, replicate 1: 2755
- Renilla reference signal, replicate 2: 1728

Gmppb (GDP-mannose pyrophosphorylase B)
- firefly Hh reporter signal, replicate 1: 1.34e5
- firefly Hh reporter signal, replicate 2: 71817
- Renilla reference signal, replicate 1: 5403
- Renilla reference signal, replicate 2: 2840
